Assay results published in article PMC9103046.
No constants are given. Whether binding was seen depends on the method and setting. In cells and extracts the contact can be indirect. A yes stands for co-enrichment or nearness to the bait. Other partners may have been found.

Target: T1, St13 (mouse (endogenous in pancreatic acinar cells of PRSS1Tg mice)) (UniProt Q99L47)
T1 sequence: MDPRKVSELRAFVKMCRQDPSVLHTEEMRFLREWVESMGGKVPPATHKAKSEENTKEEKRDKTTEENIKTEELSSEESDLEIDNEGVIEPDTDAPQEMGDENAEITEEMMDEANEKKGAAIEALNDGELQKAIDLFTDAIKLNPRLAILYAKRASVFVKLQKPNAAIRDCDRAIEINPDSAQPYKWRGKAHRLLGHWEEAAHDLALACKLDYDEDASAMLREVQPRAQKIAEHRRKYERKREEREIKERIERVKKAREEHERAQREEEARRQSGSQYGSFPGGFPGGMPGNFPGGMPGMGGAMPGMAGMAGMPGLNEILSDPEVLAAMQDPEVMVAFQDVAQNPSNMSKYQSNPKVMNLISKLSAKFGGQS
Assay: affinity purification with mass spectrometry; co-IP of St13 from pancreatic acinar cells of PRSS1Tg mice (untreated group A, ethanol-treated group B, IgG group C); SDS-PAGE, silver staining, trypsin digest, mass spectrometry with DIA quantification

binding: binds
B1: Stromal cell-derived factor 2-like 1 (Sdf2l1) (protein, UniProt Q9ESP1 29-221)
chain: SKASAGLVTCGSVLKLLNTHHKVRLHSHDIKYGSGSGQQSVTGVEESDDANSYWRIRGGSEGGCPRGLPVRCGQAVRLTHVLTGKNLHTHHFPSPLSNNQEVSAFGEDGEGDDLDLWTVRCSGQHWEREASVRFQHVGTSVFLSVTGEQYGNPIRGQHEVHGMPSANAHNTWKAMEGIFIKPGADLSTGHDEL
